Measurements reported in PubChem BioAssay AID1259308 (NCATS, 2017)
Purpose: 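Candidate targets for better recombinant protein yield in mammalian cells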 (primary screen). System: human HEK293 embryonic kidney cells stably expressing firefly luciferase (HEK-CMV-Luc2-Hygro). Reagent: single siRNA against human genes, 0.8 pmol siRNA per well. Duration: 72 h. Detection: 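Reporter luminescence and viable-cell signal on separate replicate plates, given as percent of non-targeting control and median/MAD z-scores, plus per-cell luciferase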. Reading the numbers: total luciferase, z-score and total luciferase, % of control: higher = more reporter protein produced; luciferase per cell, z-score: higher = more reporter output per viable cell; viable cells, % of control: higher = more viable cells. Rule for the call: 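An siRNA counts as active if its total luciferase robust z-score exceeds 3; genes with two or more such siRNAs out of three were retested with fresh siRNAs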. Calls: active = raised luciferase; inactive = no rise.
This is a random part of about 59,000 reagents. About 1,510 of them (2.6%) were called active. 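Calls use total luciferase alone and ignore viability, so some active siRNAs may act by altering cell number.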 The numbers tell different reagents against one gene apart.

no.	target	reagent no.	total luciferase, z-score	total luciferase, % of control	luciferase per cell, z-score	viable cells, % of control	call
1	GTF2H2B	1	1.52	112	1.1	93.8	inactive
2	GTF2H2B	2	0.858	99	-0.0518	112	inactive
3	GTF2H2B	3	0.357	89	0.0671	97.7	inactive
4	OR5D13	1	0.408	90	0.28	93.4	inactive
5	OR5D13	2	-0.0939	80	0.127	86.5	inactive
6	OR5D13	3	-0.854	64.9	-1.15	98.2	inactive
7	DENND2C	1	-0.516	71.6	0.566	69	inactive
8	DENND2C	2	0.751	96.8	1.5	72.9	inactive
9	DENND2C	3	0.356	89	0.571	85.5	inactive
10	PARP15	1	0.277	87.4	-0.342	107	inactive
11	PARP15	2	0.193	85.7	-0.123	99	inactive
12	PARP15	3	-0.497	72	-1.13	108	inactive
13	ARHGAP27P1	1	4.09	163	3.58	71	active
14	ARHGAP27P1	2	-0.745	67.1	-0.244	79.9	inactive
15	ARHGAP27P1	3	-2.01	41.9	-1.81	75.3	inactive
16	NUP210P1	1	0.825	98.3	1.31	77.9	inactive
17	NUP210P1	2	1.45	111	0.883	98	inactive
18	NUP210P1	3	0.369	89.2	0.218	94.1	inactive
19	ZNF789	1	0.948	101	0.511	98.4	inactive
20	ZNF789	2	0.98	101	2.67	56.1	inactive
21	ZNF789	3	0.72	96.2	0.9	84.8	inactive
22	BSCL2	1	0.194	85.7	-0.131	99.2	inactive
23	BSCL2	2	0.339	88.6	-0.0864	101	inactive
24	BSCL2	3	-0.498	72	-1	105	inactive
25	SMCP	1	-0.58	70.3	-0.177	82.4	inactive
26	SMCP	2	0.204	85.9	-0.614	113	inactive
27	SMCP	3	-1.05	61	-1.04	89.6	inactive
28	CTR9	1	-0.264	76.6	0.996	65.9	inactive
29	CTR9	2	0.529	92.4	1.63	67.3	inactive
30	CTR9	3	-1.77	46.6	-0.547	60.2	inactive
31	YPEL2	1	2.54	132	1.95	88.5	inactive
32	YPEL2	2	-1.1	60	-0.964	86.5	inactive
33	YPEL2	3	1.6	114	1.46	86.6	inactive
34	CHTOP	1	0.196	85.8	0.315	88.2	inactive
35	CHTOP	2	-0.26	76.7	-0.618	101	inactive
36	CHTOP	3	-0.205	77.8	-0.276	93.5	inactive
37	RNF31	1	-0.811	65.8	-0.995	95.5	inactive
38	RNF31	2	-0.572	70.5	-0.38	87.1	inactive
39	RNF31	3	-1.08	60.5	-1.41	98	inactive
40	KCNJ3	1	0.528	92.4	1.41	71.3	inactive
41	KCNJ3	2	-0.0693	80.5	-0.525	103	inactive
42	KCNJ3	3	-0.481	72.3	-0.581	94.2	inactive
43	FBXL14	1	0.422	90.3	-0.324	110	inactive
44	FBXL14	2	0.499	91.8	0.635	86.8	inactive
45	FBXL14	3	-0.278	76.3	-0.21	90.2	inactive
46	PRXL2B	1	1.51	112	1.33	88.3	inactive
47	PRXL2B	2	-0.59	70.1	0.705	65.1	inactive
48	PRXL2B	3	0.941	101	0.371	102	inactive
49	GPATCH3	1	-0.349	74.9	-0.415	93.4	inactive
50	GPATCH3	2	-0.418	73.6	-1.12	110	inactive
51	GPATCH3	3	1.81	118	1.73	83.5	inactive
52	KRT33B	1	2.95	140	2.06	91.3	inactive
53	KRT33B	2	-0.264	76.6	0.369	77.7	inactive
54	KRT33B	3	-0.769	66.6	-0.711	89.7	inactive
55	TNPO3	1	0.313	88.1	1.39	68.2	inactive
56	TNPO3	2	-1.26	56.9	-1.58	96.3	inactive
57	TNPO3	3	-0.581	70.3	-0.804	97.1	inactive
58	ZNF114	1	-1.09	60.3	-0.37	74.3	inactive
59	ZNF114	2	0.395	89.7	0.0504	99	inactive
60	ZNF114	3	-0.393	74.1	-0.114	85.3	inactive
61	PAFAH1B2P2	1	1.73	116	1.71	82.8	inactive
62	PAFAH1B2P2	2	-0.0563	80.8	-0.216	95.5	inactive
63	PAFAH1B2P2	3	4.22	166	3.03	83.4	active
64	CFAP57	1	-0.761	66.7	-0.796	92	inactive
65	CFAP57	2	-0.553	70.9	-0.599	92.8	inactive
66	CFAP57	3	-0.0872	80.2	0.692	74.6	inactive
67	SLC10A6	1	-0.117	79.6	-0.489	101	inactive
68	SLC10A6	2	0.769	97.2	0.311	100	inactive
69	SLC10A6	3	-0.0726	80.4	0.508	78.6	inactive
70	ARL10	1	4.25	166	2.98	84.8	active
71	ARL10	2	0.0424	82.7	-0.251	98.8	inactive
72	ARL10	3	-0.113	79.6	-0.618	105	inactive
73	CZ1P-ASNS	1	0.339	88.6	0.0873	96.8	inactive
74	CZ1P-ASNS	2	-0.701	67.9	-0.864	95.3	inactive
75	CZ1P-ASNS	3	2.51	132	1.37	103	inactive

In a second layout: entries from further up
target,reagent no.,"total luciferase, z-score","total luciferase, % of control","luciferase per cell, z-score","viable cells, % of control",call
ZNF114,1,-1.09,60.3,-0.37,74.3,inactive
ZNF114,2,0.395,89.7,0.0504,99,inactive
ZNF114,3,-0.393,74.1,-0.114,85.3,inactive
PAFAH1B2P2,1,1.73,116,1.71,82.8,inactive
PAFAH1B2P2,2,-0.0563,80.8,-0.216,95.5,inactive
PAFAH1B2P2,3,4.22,166,3.03,83.4,active
CFAP57,1,-0.761,66.7,-0.796,92,inactive
CFAP57,2,-0.553,70.9,-0.599,92.8,inactive
CFAP57,3,-0.0872,80.2,0.692,74.6,inactive
SLC10A6,1,-0.117,79.6,-0.489,101,inactive
